Earlier results, collected in patent publication US20100015147A1 (priority 2001, published 2010).
For at least one compound, name, drawing or mass did not settle the structure.

Tested on: dorsal-root ganglion (DRG) neurons
Settings: exposure to forskolin; cited from earlier work

C=C[C@@]1(C)CC(=O)[C@]2(O)[C@@]3(C)[C@@H](O)CCC(C)(C)[C@@H]3[C@H](O)[C@H](OC(C)=O)[C@@]2(C)O1 [forskolin]
effect on APD in CTX-B treated neurons: characteristic prolongation of the APD
